Measured values reported in the supplement of paper PMC10331698.
± gives the standard deviation of the averaged measurements. Small differences around the control level are noise.

Columns and labels:
Assay in all cases: level (log10 ratio to DMSO vehicle control); higher = higher biomarker level / cell amount than vehicle control
[1] = compound: C=CC(=O)OCC(F)(F)C(F)(F)C(F)(F)C(F)(F)C(F)(F)C(F)(F)C(F)(F)C(F)F [1H,1H,9H-Perfluorononyl acrylate]; conditions: 2200 nM; in DMSO
Procedure: (§1)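 BioMAP Diversity Plus panel of 12 human primary cell co-culture systems (3C, 4H, LPS, SAg, BT, BF4T, BE3C, CASM3C, HDF3CGF, KF3CT, MyoF, Mphg). Compounds were added 1 h before stimulation and left for 24 h (MyoF 48 h; BT 72 h for soluble read-outs or 6 d for IgG). Biomarkers were read by ELISA, cytotoxicity by SRB, PBMC viability and proliferation by Alamar Blue. Each well value was divided by the mean of 8 DMSO control wells on the same plate and log10 transformed; duplicate blinded samples were tested at 4 concentrations.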

[2] = compound: O=C(O)C(F)(F)OC(F)(F)C(F)(F)OC(F)(F)C(F)(F)OC(F)(F)C(F)(F)C(F)(F)C(F)(F)F [Perfluoro-3,6,9-trioxatridecanoic acid]; conditions: 2200 nM; in DMSO
Procedure: as §1

[3] = compound: FC(F)(F)C(F)(F)C(F)(F)C(F)(F)C(F)(F)C(F)(F)C(F)(F)C(F)(F)CCS [2-(Perfluorooctyl)ethanthiol]; conditions: in DMSO
Procedure: as §1

[4] = compound: O=C(O)C(F)(F)OC(F)(F)C(F)(F)OC(F)(F)F [Perfluoro-3,6-dioxaheptanoic acid]; conditions: 2200 nM; in DMSO
Procedure: as §1

[5] = compound: O=C(O)CCC(F)(C(F)(F)F)C(F)(F)F [4,4-bis(Trifluoromethyl)-4-fluoropropanoic acid]; conditions: 2200 nM; in DMSO
Procedure: as §1

[6] = compound: N=C(N)C(F)(F)C(F)(F)C(F)(F)C(F)(F)C(F)(F)C(F)(F)C(F)(F)F [Perfluorooctanamidine]; conditions: in DMSO
Procedure: as §1

[7] = compound: O=C(O)C(F)(F)C(F)(F)C(F)(F)C(F)(F)C(F)(F)C(F)(F)C(F)(F)F [Ammonium perfluorooctanoate]; conditions: 2200 nM; in DMSO
Procedure: as §1

[8] = compound: CCOC(=O)CC(=O)C(F)(F)C(F)(F)F [Ethyl pentafluoropropionyl acetate]; conditions: 2200 nM; in DMSO
Procedure: as §1

[9] = compound: O=C(CC(=O)C(F)(F)C(F)(F)C(F)(F)F)c1cccs1 [(Perfluorobutyryl)-2-thenoylmethane]; conditions: 2200 nM; in DMSO
Procedure: as §1

[10] = compound: O=C(O)C(F)(F)C(F)(F)C(F)(F)C(F)(F)C(F)(F)C(F)(F)C(F)(F)C(F)(F)F [Perfluorononanoic acid]; conditions: 2200 nM; in DMSO
Procedure: as §1

[11] = compound: O=C(O)C(F)(F)C(F)(F)C(F)(F)C(F)(F)C(F)(F)C(F)(F)C(F)(F)F [Perfluorooctanoic acid]; conditions: 2200 nM; in DMSO
Procedure: as §1

[12] = compound: OCC(F)(F)OC(F)(F)C(F)(F)OC(F)(F)C(F)(F)OC(F)(F)CO [1H,1H,11H,11H-Perfluorotetraethylene glycol]; conditions: 2200 nM; in DMSO
Procedure: as §1

[13] = compound: O=C(O)C(F)(F)C(F)(F)C(F)(F)C(F)(F)C(F)(F)C(F)(F)C(F)(F)C(F)(F)C(F)(F)F [Perfluorodecanoic acid]; conditions: in DMSO
Procedure: as §1

[14] = compound: OCC(F)(F)C(F)(F)C(F)(F)C(F)(F)C(F)(F)C(F)(F)C(F)(F)C(F)(F)CO [1H,1H,10H,10H-Perfluorodecane-1,10-diol]; conditions: 2200 nM; in DMSO
Procedure: as §1

## BT:B cell Proliferation
[1]
  level (log10): -0.0135 ± 0.013
[2]
  level (log10): -0.017 ± 0.025
[3]; 740 nM
  level (log10): -0.012 ± 0.021
[3]; 2200 nM
  level (log10): 0.0245 ± 0.018
[4]
  level (log10): 0.028 ± 0.05
[5]
  level (log10): 0.0095 ± 0.03
[6]; 2200 nM
  level (log10): 0.0185 ± 0.012
[6]; 6700 nM
  level (log10): -0.0005 ± 0.011
[6]; 20000 nM
  level (log10): -0.002 ± 0.017
[6]; 60000 nM
  level (log10): -0.086
[7]
  level (log10): 0.008 ± 0.038
[8]
  level (log10): 0.026 ± 0.024
[9]
  level (log10): -0.018 ± 0.016
[10]
  level (log10): 0.0505 ± 0.0078
[11]
  level (log10): 0.0165 ± 0.025
[12]
  level (log10): -0.004 ± 0.016
[13]; 2200 nM
  level (log10): -0.006 ± 0.02
[13]; 6700 nM
  level (log10): 0.0135 ± 0.04
[13]; 20000 nM
  level (log10): 0.0395 ± 0.03
[14]
  level (log10): 0.016 ± 0.0042

## HDF3CGF:SRB
[1]
  level (log10): 0.0175 ± 0.012
[2]
  level (log10): 0.0185 ± 0.0035
[3]; 740 nM
  level (log10): -0.007 ± 0.028
[3]; 2200 nM
  level (log10): -0.0045 ± 0.0078
[4]
  level (log10): -0.007 ± 0.025
[5]
  level (log10): -0.0445 ± 0.032
[6]; 2200 nM
  level (log10): -0.037 ± 0.023
[6]; 6700 nM
  level (log10): -0.01 ± 0.017
[6]; 20000 nM
  level (log10): 0.0155 ± 0.0035
[6]; 60000 nM
  level (log10): -0.048
[7]
  level (log10): 0.0425 ± 0.059
[8]
  level (log10): 0.0155 ± 0.052
[9]
  level (log10): 0.0395 ± 0.005
[10]
  level (log10): 0.0145 ± 0.033
[11]
  level (log10): -0.02 ± 0.0042
[12]
  level (log10): -0.044 ± 0.027
[13]; 2200 nM
  level (log10): 0.06 ± 0.0071
[13]; 6700 nM
  level (log10): 0.0725 ± 0.044
[13]; 20000 nM
  level (log10): 0.131 ± 0.016
[14]
  level (log10): -0.011 ± 0.0099

## BT:sIL-6
[1]
  level (log10): -0.031 ± 0.017
[2]
  level (log10): -0.0315 ± 0.029
[3]; 740 nM
  level (log10): 0.009 ± 0.017
[3]; 2200 nM
  level (log10): -0.0255 ± 0.046
[4]
  level (log10): 0.014 ± 0.014
[5]
  level (log10): 0.0325 ± 0.00071
[6]; 2200 nM
  level (log10): 0.075 ± 0.054
[6]; 6700 nM
  level (log10): 0.0205 ± 0.025
[6]; 20000 nM
  level (log10): -0.0285 ± 0.016
[6]; 60000 nM
  level (log10): -0.097
[7]
  level (log10): -0.024 ± 0.1
[8]
  level (log10): -0.039 ± 0.059
[9]
  level (log10): 0.0055 ± 0.0092
[10]
  level (log10): -0.0265 ± 0.0021
[11]
  level (log10): 0.0775 ± 0.021
[12]
  level (log10): -0.0665 ± 0.013
[13]; 2200 nM
  level (log10): -0.0305 ± 0.057
[13]; 6700 nM
  level (log10): -0.029 ± 0.071
[13]; 20000 nM
  level (log10): 0.077 ± 0.058
[14]
  level (log10): 0.012 ± 0.016

## 3C:CD54/ICAM-1
[1]
  level (log10): -0.0035 ± 0.0078
[2]
  level (log10): 0.001 ± 0.028
[3]; 740 nM
  level (log10): -0.0015 ± 0.026
[3]; 2200 nM
  level (log10): -0.005 ± 0.013
[4]
  level (log10): -0.009 ± 0.02
[5]
  level (log10): -0.009 ± 0.031
[6]; 2200 nM
  level (log10): -0.001 ± 0.02
[6]; 6700 nM
  level (log10): -0.0065 ± 0.0035
[6]; 20000 nM
  level (log10): -0.038 ± 0.013
[6]; 60000 nM
  level (log10): -0.049
[7]
  level (log10): 0.0185 ± 0.005
[8]
  level (log10): -0.007 ± 0.018
[9]
  level (log10): -0.006 ± 0.0057
[10]
  level (log10): -0.0175 ± 0.00071
[11]
  level (log10): 0.0025 ± 0.013
[12]
  level (log10): 0.004 ± 0.016
[13]; 2200 nM
  level (log10): 0.014 ± 0.02
[13]; 6700 nM
  level (log10): 0.0105 ± 0.0021
[13]; 20000 nM
  level (log10): 0.015 ± 0.0071
[14]
  level (log10): -0.0035 ± 0.00071

## LPS:sPGE2
[1]
  level (log10): -0.039 ± 0.057
[2]
  level (log10): 0.018 ± 0.0085
[3]; 740 nM
  level (log10): -0.0205 ± 0.047
[3]; 2200 nM
  level (log10): 0.021 ± 0.024
[4]
  level (log10): -0.0175 ± 0.019
[5]
  level (log10): -0.001 ± 0.017
[6]; 2200 nM
  level (log10): 0.0155 ± 0.0021
[6]; 6700 nM
  level (log10): -0.019 ± 0.031
[6]; 20000 nM
  level (log10): -0.078 ± 0.031
[6]; 60000 nM
  level (log10): -0.06
[7]
  level (log10): -0.037 ± 0.023
[8]
  level (log10): 0.0125 ± 0.005
[9]
  level (log10): -0.046 ± 0.014
[10]
  level (log10): -0.007 ± 0.0042
[11]
  level (log10): 0.0335 ± 0.015
[12]
  level (log10): 0.0235 ± 0.005
[13]; 2200 nM
  level (log10): -0.01 ± 0.016
[13]; 6700 nM
  level (log10): -0.017 ± 0.025
[13]; 20000 nM
  level (log10): -0.052 ± 0.0071
[14]
  level (log10): -0.0055 ± 0.059

## lMphg:CCL3/MIP-1alpha
[1]
  level (log10): 0.004 ± 0.034
[2]
  level (log10): -0.0155 ± 0.03
[3]; 740 nM
  level (log10): 0.003 ± 0.028
[3]; 2200 nM
  level (log10): 0.0115 ± 0.011
[4]
  level (log10): 0.0045 ± 0.029
[5]
  level (log10): -0.0135 ± 0.03
[6]; 2200 nM
  level (log10): -0.013 ± 0.048
[6]; 6700 nM
  level (log10): -0.029 ± 0.03
[6]; 20000 nM
  level (log10): 0.0015 ± 0.035
[6]; 60000 nM
  level (log10): 0.055
[7]
  level (log10): 0 ± 0.0071
[8]
  level (log10): -0.011 ± 0.014
[9]
  level (log10): 0.013 ± 0.027
[10]
  level (log10): 0.0065 ± 0.025
[11]
  level (log10): 0.029 ± 0.042
[12]
  level (log10): -0.007 ± 0.02
[13]; 2200 nM
  level (log10): -0.019 ± 0.024
[13]; 6700 nM
  level (log10): 0.004 ± 0.013
[13]; 20000 nM
  level (log10): -0.0125 ± 0.049
[14]
  level (log10): 0.0125 ± 0.061
